{"source": "patent US20250064951A1", "about": "“DENDRITIC POLYELECTROLYTE ZWITTERIONS, JANUS-TYPE CONJUGATE COMPRISING SAME AND USES THEREOF” (ArtProBio Co., Ltd., priority 2023, published 2025)", "tested_on": "HeLa cells", "assay": "Cytotoxicity, WST-8 assay in HeLa cells", "format": "cell-based", "protocol": "Since DPZ contains both polyelectrolytes and zwitterions in a single molecule, it is expected to have non-fouling property and low toxicity, while also having advantageous intracellular delivery efficiency due to its interaction with the cell membrane. Cytotoxicity was analyzed first. HeLa cells were subcultured in DMEM supplemented with 10% FBS (fetal bovine serum), dispensed into each well at 1×10^4 cells/well, and cultured at 37° C. for 24 hours. The cells were treated with the samples (Examples 1-1 to 1-6 or Comparative Examples 3-1 and 3-2) at various concentrations and then cultured at 37° C. for 4 hours. WST-8 solution was added to the cultured cells, and absorbance was measured at 450 nm with a microplate reader (Perkin-Elmer, USA) 4 hours later.\nCytotoxicity was analyzed using HeLa cells. Specifically, HeLa cells were subcultured in DMEM supplemented with 10% FBS (fetal bovine serum), dispensed into each well at 1×10^4 cells/well, and cultured at 37° C. for 24 hours. The cells were treated with the samples (Examples 3-1 to 3-6) at various concentrations and then cultured at 37° C. for 4 hours. WST-8 solution was added to the cultured cells, and absorbance was measured at 450 nm with a microplate reader (Perkin-Elmer, USA) 4 hours later.", "note": "Not every detail of the peptide structures is certain; ends, links or a residue may be inferred.", "data": [{"substance": "Ac-EEEEEEEEEEEERRRRRRRRRRRR-NH2 [Comparative Example 3-2]", "values": [{"measurement": "effect on cell growth", "result": "promoted cell growth"}]}]}
